Results deposited as PubChem BioAssay AID652272 (Drosophila RNAi Screening Center, 2013)
In all, the deposit lists about 21,000 reagents; this is an unselected part of those that have a named target and a result. In the full data, 503 (2.4%) are marked active. 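Raw plate light values, not normalised; calls rest on replicate z-scores that were not deposited; hits include reporter decreases as well as increases.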 The numbers tell different reagents against one gene apart. Reagent sequences are not shown. The record does not give: the amount of reagent, the time to read-out.

Aim: 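Genome-wide knock-down search for components of Hedgehog signalling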 (primary screen)
Cell system: Drosophila clone 8 (Cl8) cells
Knock-down reagent: long dsRNA against Drosophila genes
Measurement: 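Firefly light from a Hedgehog-responsive ptc promoter reporter and Renilla reference light, both read on a plate reader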
Reading the numbers: firefly Hh reporter signal: higher = more ptc reporter light; Renilla reference signal: higher = more Renilla control light
Call rule: 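Hit when the z-score averaged over two replicates is under -2 or over +3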
Meaning of the calls: active = hit: reporter lowered or raised; inactive = not a hit

CG10918
- firefly Hh reporter signal, replicate 1: 95481
- firefly Hh reporter signal, replicate 2: 2.54e5
- Renilla reference signal, replicate 1: 1557
- Renilla reference signal, replicate 2: 10691
- call: inactive

CG30419 #1
- firefly Hh reporter signal, replicate 1: 1.24e5
- firefly Hh reporter signal, replicate 2: 5.61e5
- firefly Hh reporter signal, replicate 3: 85961
- Renilla reference signal, replicate 1: 3387
- Renilla reference signal, replicate 2: 33510
- call: inactive

CG30419 #2
- firefly Hh reporter signal, replicate 1: 1.49e5
- firefly Hh reporter signal, replicate 2: 4.36e5
- firefly Hh reporter signal, replicate 3: 1.14e5
- Renilla reference signal, replicate 1: 4337
- Renilla reference signal, replicate 2: 27283
- call: inactive

CG12817
- firefly Hh reporter signal, replicate 1: 92921
- firefly Hh reporter signal, replicate 2: 1.79e5
- Renilla reference signal, replicate 1: 2809
- Renilla reference signal, replicate 2: 4551
- call: inactive

CG34296
- firefly Hh reporter signal, replicate 1: 57066
- firefly Hh reporter signal, replicate 2: 3.60e5
- Renilla reference signal, replicate 1: 13722
- Renilla reference signal, replicate 2: 7465
- call: inactive

stops #1
- firefly Hh reporter signal, replicate 1: 77659
- firefly Hh reporter signal, replicate 2: 85542
- Renilla reference signal, replicate 1: 2929
- Renilla reference signal, replicate 2: 2389
- call: inactive

stops #2
- firefly Hh reporter signal, replicate 1: 1.17e5
- firefly Hh reporter signal, replicate 2: 1.11e5
- Renilla reference signal, replicate 1: 4053
- Renilla reference signal, replicate 2: 3024
- call: inactive

stops #3
- firefly Hh reporter signal, replicate 1: 1.29e5
- firefly Hh reporter signal, replicate 2: 1.04e5
- Renilla reference signal, replicate 1: 4506
- Renilla reference signal, replicate 2: 3308
- call: inactive

sac
- firefly Hh reporter signal, replicate 1: 1.01e5
- firefly Hh reporter signal, replicate 2: 1.47e5
- Renilla reference signal, replicate 1: 3637
- Renilla reference signal, replicate 2: 4089
- call: inactive

CG11164
- firefly Hh reporter signal, replicate 1: 1.05e5
- firefly Hh reporter signal, replicate 2: 2.19e5
- Renilla reference signal, replicate 1: 3075
- Renilla reference signal, replicate 2: 7684
- call: inactive

btd
- firefly Hh reporter signal, replicate 1: 55636
- firefly Hh reporter signal, replicate 2: 1.50e5
- Renilla reference signal, replicate 1: 1651
- Renilla reference signal, replicate 2: 5122
- call: inactive

Laid out differently: entries from further up.
{"predicted target": "CG30419", "reagent no.": 1, "firefly Hh reporter signal, replicate 1": 1.24e5, "firefly Hh reporter signal, replicate 2": 5.61e5, "firefly Hh reporter signal, replicate 3": 85961, "Renilla reference signal, replicate 1": 3387, "Renilla reference signal, replicate 2": 33510, "call": "inactive"}
{"predicted target": "CG30419", "reagent no.": 2, "firefly Hh reporter signal, replicate 1": 1.49e5, "firefly Hh reporter signal, replicate 2": 4.36e5, "firefly Hh reporter signal, replicate 3": 1.14e5, "Renilla reference signal, replicate 1": 4337, "Renilla reference signal, replicate 2": 27283, "call": "inactive"}
{"predicted target": "CG12817", "reagent no.": 1, "firefly Hh reporter signal, replicate 1": 92921, "firefly Hh reporter signal, replicate 2": 1.79e5, "Renilla reference signal, replicate 1": 2809, "Renilla reference signal, replicate 2": 4551, "call": "inactive"}

Additional reagents follow:
CG32512 #1
- firefly Hh reporter signal, replicate 1: 1.53e5
- firefly Hh reporter signal, replicate 2: 7.22e5
- firefly Hh reporter signal, replicate 3: 3.47e5
- Renilla reference signal, replicate 1: 5784
- Renilla reference signal, replicate 2: 5738
- call: inactive

CG32512 #2
- firefly Hh reporter signal, replicate 1: 1.07e5
- firefly Hh reporter signal, replicate 2: 68039
- Renilla reference signal, replicate 1: 6535
- Renilla reference signal, replicate 2: 3032
- call: inactive

Task7
- firefly Hh reporter signal, replicate 1: 57276
- firefly Hh reporter signal, replicate 2: 1.18e5
- Renilla reference signal, replicate 1: 2016
- Renilla reference signal, replicate 2: 2897
- call: inactive

Nna1 #1
- firefly Hh reporter signal, replicate 1: 8.20e5
- firefly Hh reporter signal, replicate 2: 8.24e5
- firefly Hh reporter signal, replicate 3: 3.12e5
- Renilla reference signal, replicate 1: 47025
- Renilla reference signal, replicate 2: 7404
- call: inactive

Nna1 #2
- firefly Hh reporter signal, replicate 1: 94983
- firefly Hh reporter signal, replicate 2: 90330
- Renilla reference signal, replicate 1: 1836
- Renilla reference signal, replicate 2: 1240
- call: inactive

E(spl)m5-HLH
- firefly Hh reporter signal, replicate 1: 5.18e5
- firefly Hh reporter signal, replicate 2: 75639
- Renilla reference signal, replicate 1: 26336
- Renilla reference signal, replicate 2: 2376
- call: inactive

lncRNA:CR43434
- firefly Hh reporter signal, replicate 1: 40250
- firefly Hh reporter signal, replicate 2: 1.42e5
- Renilla reference signal, replicate 1: 10541
- Renilla reference signal, replicate 2: 3896
- call: inactive

CG7031
- firefly Hh reporter signal, replicate 1: 1.55e5
- firefly Hh reporter signal, replicate 2: 12347
- Renilla reference signal, replicate 1: 13056
- Renilla reference signal, replicate 2: 825
- call: inactive

Vps8
- firefly Hh reporter signal, replicate 1: 53168
- firefly Hh reporter signal, replicate 2: 75996
- Renilla reference signal, replicate 1: 6016
- Renilla reference signal, replicate 2: 4317
- call: inactive

CG34396 #1
- firefly Hh reporter signal, replicate 1: 1.38e5
- firefly Hh reporter signal, replicate 2: 68124
- Renilla reference signal, replicate 1: 3515
- Renilla reference signal, replicate 2: 7124
- call: inactive

CG34396 #2
- firefly Hh reporter signal, replicate 1: 85361
- firefly Hh reporter signal, replicate 2: 61931
- Renilla reference signal, replicate 1: 2073
- Renilla reference signal, replicate 2: 4470
- call: inactive

CG30103
- firefly Hh reporter signal, replicate 1: 63888
- firefly Hh reporter signal, replicate 2: 66464
- Renilla reference signal, replicate 1: 1856
- Renilla reference signal, replicate 2: 4224
- call: inactive

CG40498
- firefly Hh reporter signal, replicate 1: 1.11e5
- firefly Hh reporter signal, replicate 2: 3.07e5
- Renilla reference signal, replicate 1: 2936
- Renilla reference signal, replicate 2: 11909
- call: inactive

inv
- firefly Hh reporter signal, replicate 1: 1.38e5
- firefly Hh reporter signal, replicate 2: 75986
- Renilla reference signal, replicate 1: 3453
- Renilla reference signal, replicate 2: 4745
- call: inactive

Fum2
- firefly Hh reporter signal, replicate 1: 79458
- firefly Hh reporter signal, replicate 2: 1.90e5
- Renilla reference signal, replicate 1: 3559
- Renilla reference signal, replicate 2: 9366
- call: inactive

CG13110
- firefly Hh reporter signal, replicate 1: 1.07e5
- firefly Hh reporter signal, replicate 2: 4.89e5
- firefly Hh reporter signal, replicate 3: 43043
- Renilla reference signal, replicate 1: 3026
- Renilla reference signal, replicate 2: 26773
- call: inactive
